Source: patent US7655237B2, “Use of soluble CD14 for treatment of type 2 diabetes mellitus” (Bridge Bioresearch Limited, priority 2003, dated 2010)

Assays:
[1] = system: C57BL/6J ob/ob mice; assay: treatment of insulin-resistant diabetic C57BL/6J ob/ob mice, intraperitoneal glucose tolerance test; format: in vivo; conditions: 12 days treatment
Text: The objective of this experiment was to study the effect of systemic administration of human recombinant sCD14 (rhCD14) with respect to relevant insulin resistance parameters in experimental mice (mice C57BL/6J ob/ob).
Experimental animals: Mice strains C57BL/6J ob/ob (The Jackson lab.). Males of 10 weeks old. These animals had obesity with hyperphagia, hyperinsulinemia (the presence of excess insulin in the blood), insulin resistance and moderate hyperglycemia (an excess of sugar in the blood).
Treatment of the mice with rhCD14: rhCD14 was continuously infused for 12 days by use of Alzet® pumps (pump 1002, 100 μl) implanted subcutaneously on the back of the animals. 20 mice were used. 10 with rhCD14 and 10 with saline serum (control). The dose was 1 μg/g weight of mice/day and it was administrated subcutaneously for 12 days.
Assay for glucose tolerance: Finalized the 12 days and after 16 hours of fasting, an intraperitoneal glucose tolerance test (GTT) was made. 2 g/kg of glucose (Glucosmon, 50%) were injected intraperitoneally. Blood samples were taken from the tail of the mice (20 μl) at 0, 15, 30, 60, 120 and 180 minutes after the glucose administration. The blood glucose levels were measured using a conventional glucometer (Menarini) and the insulin levels were meed by ELISA (Mercodia Ultrasensitive Mouse Insulin ELISA).

[2] = system: C57BL/6J mice (HF mice); assay: treatment of insulin-resistant obese C57BL/6J mice (HF mice), glucose tolerance test; format: in vivo; conditions: HF diet obese mice, 12 days treatment
Text: The objective of this experiment was to study the effect of systemic administration of human recombinant sCD14 (rhCD14) with respect to relevant insulin resistance parameters in experimental mice (C57BL/6J mice (HF mice).
Experiential animals: Male mice strains C57BL/6J (HF mice) C(he Jackson lab.). These animals had obesity.
Treatment of the mice with rhCD14: Male C57BL/6J mice were fed a HF diet (Harlan Teklad No. 88137: 21% by wt and 42% kcal from fat) for 26-28 weeks. The last 12 days, mice received a dose of 1 μg/g bw per day of hCD14 in two injections (0.5 μg/g each one) every 12 hours. The control group was treated with vehicle (saline serum) alone. Each group contained 9 mice.
Assay for Glucose Tolerance: As in Example 1.

rhCD14: human recombinant soluble CD14 glycoprotein, binds bacterial lipopolysaccharide (LPS) (AELQQWLKPGLKVLSIAQAHSLNFSC; mammalian)
did not produce significant changes: ingestion of food, treated vs controls [1] | weight of the epidermal adipose tissue, treated vs controls [1] | weight of the soleus muscles, treated vs controls [1] | ingestion of food, treated vs controls [2] | weight of the epidermal adipose tissue, treated vs controls [2] | weight of the soleus muscles, treated vs controls [2]
